{"source": "patent US20170175081A1", "about": "“Methods of Obtaining Islet Cells” (The University Court of the University of Aberdeen, priority 2014, published 2017)", "tested_on": "islet derived MSCs", "experiment": "Attachment and Ad-KLF4 redifferentiation on laminin isoform coatings", "format": "cell-based, human", "conditions": "glass coverslips pre-coated with laminin isoform", "note": "Some results come without the dose or concentration used."}
{"substance": "LN511: laminin isoform obtained from Biolamina AB", "values": [{"measurement": "time to full attachment of freshly-plated islet derived MSCs", "result": 8, "unit": "h"}]}
{"substance": "LN521: laminin isoform obtained from Biolamina AB", "values": [{"measurement": "time to full attachment of freshly-plated islet derived MSCs", "result": 8, "unit": "h"}]}
